# In all, about 330,000 compounds went through this assay and about 7,700 (2.3%) were called active. Inconclusive results, whose numbers are uncertain, are shown with a selection of clear calls. Calls come from the whole dose curve; as a rule, active = well fitted inhibition curve with a large enough effect; inconclusive = small, poorly fitted or top-dose-only effect, or effect the other way; inactive = flat fitted curve, though single readings scatter. Where the call is inconclusive, the potency comes from a doubtful curve fit.
# Assay: qHTS screen for small molecules that inhibit ELG1-dependent DNA repair in human embryonic kidney (HEK293T) cells expressing luciferase-tagged ELG1; note: nearly all actives have a fitted effect of over 55% in size
# Details: HEK293T ELG1-luciferase reporter, luminescence, 16 h, DNA damage induced by 5-fluorouridine; activity change, negative = inhibition: at 46.1 µM (top of the series)
# How it was run: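 In this reporter screen, reduction of luminescence relative to DMSO vehicle indicated activity. Compounds and 5-fluorouridine were added together to 2,000 cells per well, incubated for 16 hr at 37 °C, then developed with ONE-Glo.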
# % is set by controls: 0 for no effect and ±100 for the full control effect; potency is the fitted concentration of half-maximal effect.
Structure (SMILES),Potency,"activity change, negative = inhibition"
Cc1ccc(C(=O)Nc2cccc(Oc3ccccc3)c2)o1,"inconclusive: 14.6 µM [activator, partial curve]",–
Nc1c(C(=O)N/N=C/c2cccnc2)oc2nc(-c3ccco3)cc(-c3ccco3)c12,active: 2.91 µM,–
COc1ccc(NC(=O)CSc2nnc(NC(=O)c3ccccc3C(=O)O)s2)cc1,–,inactive: -3.56%
Clc1nc(CN2CCCCC2)nc2sc3c(c12)CCCC3,–,inactive: -10%
O=C(C1CCN(S(=O)(=O)c2cccc3nonc23)CC1)N1CCCCC1,–,inactive: -1.67%
COc1cc(/C=C2\SC(=S)N(NC(=O)c3cccnc3)C2=O)ccc1O,"inconclusive: 32.6 µM [activator, partial curve, poor fit]",–
COc1ccccc1C1=NN(C(=S)Nc2ccccc2)C(c2ccco2)C1 (centres undefined),"inconclusive: 23.1 µM [activator, partial curve]",–
Nc1ccc(-c2nnc(-c3ccccc3)o2)cc1,"inconclusive: 2.91 µM [activator, partial curve]",–
O=C(Nc1ccccc1)Nc1snnc1C(=O)Nc1cccc(O)c1,"inconclusive: 20.6 µM [inhibitor, single point]",–
CCc1nc(SCC(=O)N2CCN(c3ccccc3)CC2)c2oc3ccccc3c2n1,"inconclusive: 25.9 µM [inhibitor, partial curve]",–
Nc1c(C(=O)Nc2ccc3c(c2)OCCO3)nnn1CCc1ccccc1,"inconclusive: 18.4 µM [activator, single point]",–
COc1ccccc1N1C(=O)C=C(Sc2nc(C)cc(C)n2)C1=O,–,inactive: 12.7%
Cc1[nH]c2ccccc2c1C(c1ccncc1)N1CCC(C)CC1 (centres undefined),–,inactive: 2.07%
Nc1nc(-c2ccccn2)nc(N)c1Cc1c(F)cccc1Cl,"inconclusive: 29.1 µM [activator, single point]",–
COc1ccccc1N1CCN(S(=O)(=O)CCNC(=O)c2ccc(OC(C)C)cc2)CC1,active: 13 µM,–
COc1ccc(CCNc2cc(C)nc(N)n2)cc1OC,–,inactive: -0.442%
NC(=O)c1c(NC(=O)CN2CCOCC2)sc2c1CCC2,"inconclusive: 32.6 µM [inhibitor, partial curve, poor fit]",–
CCOC(=O)c1c(C)c(C(=O)Nc2ccccc2)c(C)n1CC,"inconclusive: 18.4 µM [inhibitor, single point]",–
CN1CCN(C=NC2=NN(c3cccc(C(F)(F)F)c3)CC2)CC1,"inconclusive: 16.4 µM [activator, single point]",–
COc1ccc(C(=O)Nc2ccccc2C(=O)NC(Cc2ccc(O)cc2)C(=O)NNC(=O)c2ccccc2)cc1 (centres undefined),active: 16.4 µM,–
O=C(N/C(=C/c1ccccc1)C(=O)N1CCCCC1)c1ccc(Br)o1,"inconclusive: 29.1 µM [inhibitor, single point]",–
CCN(CC)S(=O)(=O)c1ccc(O)c(C(=O)OCC(=O)N(C)Cc2ccccc2)c1,"inconclusive: 25.9 µM [inhibitor, partial curve, poor fit]",–

Structure (SMILES),Potency,"activity change, negative = inhibition"
O=C(Cc1ccc(Cl)c(Cl)c1)Nc1cccc(S(=O)(=O)N2CCOCC2)c1,"inconclusive: 23.1 µM [inhibitor, single point]",–
CCn1c(=O)c2cc(C(=O)NCC(OC)OC)sc2c2ccccc21,"inconclusive: 8.2 µM [activator, partial curve]",–
N#CCN1CCN(CCC(=O)Nc2ccc(OCc3ccccc3)cc2)CC1,"inconclusive: 20.6 µM [activator, partial curve, poor fit]",–
O=C1c2ccccc2C(=O)N1CC1=NCCc2ccccc21,–,inactive: 9.02%
CNC(=O)C(=O)Nc1nc(C23CC4CC(CC(C4)C2)C3)cs1,"inconclusive: 8.2 µM [activator, partial curve]",–
Cc1noc(C)c1C(=O)OCC(=O)Nc1c(F)cccc1F,–,inactive: 7.94%
O=C(Nc1cccc2ccccc12)/C(=C/c1ccc([N+](=O)[O-])cc1)NC(=O)c1ccccc1,–,inactive: -26.7%
O=C(CS(=O)c1ccc(C(F)(F)F)cc1[N+](=O)[O-])Oc1ccc(Cl)cc1 (centres undefined),"inconclusive: 23.1 µM [activator, partial curve]",–
CC1Cc2ccccc2N1C(=O)CSc1nc2c(c(=O)n(C)c(=O)n2C)n1Cc1ccccc1 (centres undefined),"inconclusive: 18.4 µM [inhibitor, partial curve, poor fit]",–
CCN(CC)S(=O)(=O)c1ccc2c(c1)c(=O)c(C(=O)NCc1cccs1)cn2C,"inconclusive: 11.6 µM [inhibitor, partial curve, poor fit]",–
Cc1ccc(NS(=O)(=O)c2cc(NC(=O)c3cc4c(s3)CCCC4)ccc2C)c(C)c1,"inconclusive: 20.6 µM [inhibitor, partial curve, poor fit]",–
CCOC(=O)c1cccc2c1-c1ccccc1/C2=N/O,"inconclusive: 6.51 µM [inhibitor, partial curve, poor fit]",–
Cc1cc(N)n(-c2nc(-c3cccnc3)nc3ccccc23)n1,"inconclusive: 14.6 µM [inhibitor, partial curve]",–
COc1ccccc1NS(=O)(=O)c1cccc(N=C2N=C(N)c3ccccc32)c1,–,inactive: -24.1%
COc1ccc(NC(C)(C)c2nnnn2-c2c(C)cccc2C)cc1,"inconclusive: 32.6 µM [inhibitor, single point]",–
CC(=O)N1N=C(c2ccc(NS(=O)(=O)c3ccccc3)cc2)CC1c1ccco1 (centres undefined),–,inactive: -16.5%
CS(=O)(=O)Nc1ccc(C2=NN(S(C)(=O)=O)C(c3ccccc3)C2)cc1 (centres undefined),"inconclusive: 23.1 µM [activator, single point]",–
Cc1nnc(SCCOc2ccccc2)s1,"inconclusive: 18.3 µM [activator, single point]",–
COc1ccc(CN2CCN(CCCCOc3ccc(Cl)cc3)CC2)c(OC)c1OC,"inconclusive: 29.1 µM [inhibitor, single point]",–
CCOC(=O)N1CCC(NC(=O)c2ccc3c(c2)N(Cc2ccc(F)cc2)CCS3)CC1,active: 18.4 µM,–
CCCCCCCCNC(=O)/C(C#N)=C/c1ccc(SC)cc1,–,inactive: 6.34%
COC(=O)c1ccc(N(CC(=O)NC2CCCC2)C(=O)c2ccc(C)s2)cc1,–,inactive: -8.96%

# Record cards, from the list above:
# `CC(=O)N1N=C(c2ccc(NS(=O)(=O)c3ccccc3)cc2)CC1c1ccco1` (centres undefined) is entered as activity change, negative = inhibition: inactive: -16.5%
# `COC(=O)c1ccc(N(CC(=O)NC2CCCC2)C(=O)c2ccc(C)s2)cc1` is entered as activity change, negative = inhibition: inactive: -8.96%
# `N#CCN1CCN(CCC(=O)Nc2ccc(OCc3ccccc3)cc2)CC1` is entered as Potency: inconclusive: 20.6 µM [activator, partial curve, poor fit]

# Source: PubChem BioAssay AID504467 (National Center for Advancing Translational Sciences (NCATS), 2011)
